# From PubChem BioAssay AID445 (National Center for Advancing Translational Sciences (NCATS), 2006)
# The other results are listed elsewhere or left out. Further columns of the screen follow, without active or inactive calls. Most of these compounds were active or inconclusive in the main read-out, so they are no random draw. Words in brackets tell the shape of the fitted curve; partial curves, single points and poor fits give uncertain potencies.
# Experiment: IkB Signaling
# Conditions: ABC-DLBCL IkBa-CBG/CBR dual luciferase ratio (green luciferase fused to IkBa over red control in OCI-Ly3 lymphoma cells), 4 h
# In short: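 In this assay, an IκBα–CBG68 fusion accumulates when IKK-driven degradation is blocked; native CBR normalizes for cell number. OCI-Ly3 cells were treated 4 h with compound and doxycycline, then green and red light read after Chroma-Glo addition.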
# [1] = measured here: control luc red channel unless noted
structure (smiles),measurement,setting,value
CCCCCn1c(=O)[nH]c2cc(C(=O)N3CCN(c4cccc(C)c4)C(C)C3)ccc2c1=O (stereo not drawn),AC50,[1],"5.01 µM [falling, full curve]"
CC1=CC(C)(C)N(C(=O)CSc2nnc(-c3ccccc3)o2)c2ccc(C)cc21,AC50,[1],"12.6 µM [falling, partial curve]"
CCn1c(=O)cc(SCC(=O)NCCc2ccc(Cl)cc2)c2ccccc21,AC50,[1],"20 µM [falling, partial curve]"
CCOC(=O)C1CCC(CN(Cc2ccc(Cl)cc2)S(=O)(=O)c2ccc(F)c(C(=O)Nc3cccc(F)c3)c2)CC1 (stereo not drawn),AC50,[1],"20 µM [falling, partial curve, poor fit]"
COc1ccc(S(=O)(=O)N2CCCCC2)cc1C(=O)Nc1cccc(C(F)(F)F)c1,AC50,[1],"0.126 µM [falling, full curve]"
COc1ccc(/C=C/C(=O)Nc2sc3c(c2C(N)=O)CCCC3)cc1,AC50,[1],"10 µM [falling, full curve]"
Cc1cccc(-c2noc(CN(C(=O)c3ccc4c(c3)OCO4)C(C)C)n2)c1,AC50,[1],"15.8 µM [falling, partial curve]"
O=c1n(Cc2cccc(C(F)(F)F)c2)c2ccccc2c2nc(-c3ccccc3)nn12,AC50,[1],"12.6 µM [falling, partial curve]"
Cc1ccc(-c2ccc(CCC(=O)O)n2-c2cccc(O)c2)cc1,AC50,[1],"12.6 µM [falling, partial curve]"
Cc1ccc(CNC(=O)CCCCCn2c(=O)c3sccc3n(CC(=O)N(C)c3ccccc3)c2=O)cc1,AC50,[1],"25.1 µM [falling, single point]"
N#Cc1c(NC(=O)COC(=O)C2CC3C=CC2C3)oc(-c2ccccc2)c1-c1ccccc1 (stereo not drawn),AC50,[1],"15.8 µM [falling, partial curve]"
O=C(CSc1nnc(-c2cccnc2)n1-c1ccccc1)Nc1ccc2c(c1)OCO2,AC50,[1],"12.6 µM [falling, partial curve]"
CSc1nn(Cc2ccc(Cl)cc2)c(N(C(C)=O)C(C)=O)c1S(=O)(=O)c1ccccc1,AC50,[1],"12.6 µM [falling, partial curve]"
Cc1ccc(NS(=O)(=O)c2ccc3[nH]c(=O)ccc3c2)cc1N(C)C,AC50,[1],"15.8 µM [falling, partial curve, poor fit]"
Cc1ccc(C)c(OCCn2cc(C(=O)c3ccco3)c3ccccc32)c1,AC50,[1],"5.01 µM [falling, partial curve]"
CCc1cc2cc(C)ccc2nc1SCC(=O)N1CCN(C(=O)c2ccco2)CC1,AC50,[1],"15.8 µM [falling, partial curve]"
COc1cccc(CNC(=O)c2cc3c(s2)-c2c(C)cccc2OC3)c1,AC50,[1],"15.8 µM [falling, partial curve]"
O=C(Oc1ccc(F)cc1)c1nc(SCc2ccccc2F)ncc1Cl,AC50,[1],"12.6 µM [falling, partial curve]"
Oc1ccc(N=Cc2ccc(O)c(O)c2)cc1,AC50,[1],"3.98 µM [rising, full curve] [measured here: IkB-luc green channel]"
Cc1ccc2nc(N3CCN(C(=O)C4CC4)CC3)sc2c1,AC50,[1],"1.26 µM [rising, full curve]"
Cc1ccc(NS(=O)(=O)c2ccc3nc(-c4ccccc4)[nH]c3c2)c(Cl)c1,AC50,[1],"39.8 µM [rising, single point] [measured here: IkB-luc green channel]"
O=C(O)c1ccc2noc(-c3ccccc3)c2c1,AC50,[1],"0.251 µM [falling, full curve]"
Cc1ccc(Cn2c(C(=O)O)c(CNC3CCCCCC3)c3ccc(C)cc32)cc1,AC50,[1],"20 µM [falling, single point]"
COc1ccc(Cn2c(C(=O)O)c(CNCCc3cccs3)c3ccc(C)cc32)cc1,AC50,[1],"15.8 µM [falling, single point]"
CCc1ccccc1OC[C@@H](O)CN[C@H]1CCCc2ccccc21,AC50,[1],"20 µM [falling, partial curve]"
Cc1ccc(NC(=O)Cn2c(=O)n(CCC(=O)N3CCc4ccccc4C3)c(=O)c3ccccc32)cc1,AC50,[1],"15.8 µM [falling, single point]"
CCOC(=O)CSc1nnc(CNc2ccc(Cl)cc2)n1-c1ccccc1,AC50,[1],"12.6 µM [falling, partial curve]"
CC(C)(C)C(=O)NCCc1nc2ccccc2n1CCCCOc1ccc(Cl)cc1,AC50,[1],"20 µM [falling, partial curve]"
Cn1c(=O)oc2cc(S(=O)(=O)Nc3ccc4c(c3)OCCO4)ccc21,AC50,[1],"1.58 µM [falling, full curve]"
COc1ccc(-n2nc3c(N4CCCC(C(=O)NCc5cccc(F)c5)C4)nnc(C)c3c2C)cc1 (stereo not drawn),AC50,[1],"7.94 µM [falling, partial curve]"
CC(C)CN(CCCNC(=O)CN1C(=O)CSc2ccc(S(=O)(=O)N3CCOCC3)cc21)CC(C)C,AC50,[1],"0.398 µM [falling, full curve, poor fit]"
CCc1ccccc1N1C(=O)N(Cc2ccccc2C)c2ccccc2S1(=O)=O,AC50,[1],"12.6 µM [falling, partial curve]"
CCOC(=O)C1CCN(C(=O)C2CCN(c3nc4ccc(OC)cc4s3)CC2)CC1,AC50,[1],"15.8 µM [falling, partial curve]"
COc1ccc(OC)c2sc(N3CCN(C(=O)C4CC4)CC3)nc12,AC50,[1],"1 µM [rising, full curve]"
COc1ccc(OC)c(-n2cnc3cc(C(=O)NC4CCCCCC4)ccc32)c1,AC50,[1],"20 µM [falling, partial curve]"
COc1ccccc1NC(=O)c1cnc(SCC(=O)N2CCCc3ccccc32)n(C)c1=O,AC50,[1],"7.94 µM [falling, partial curve]"
Cc1cccc2sc(NC(=O)CN(C)S(=O)(=O)c3ccc(Br)s3)nc12,AC50,[1],"7.94 µM [falling, partial curve]"
CCOc1ccc(-c2csc(NC(=O)C3CCCO3)n2)cc1 (stereo not drawn),AC50,[1],"20 µM [falling, single point]"
COC(=O)c1c(Oc2ccc(C(C)=O)cc2)nnc(-c2ccccc2)c1-c1ccccc1,AC50,[1],"15.8 µM [falling, partial curve]"
Cc1ccc(NC(=O)Cn2cc3c(n2)CCCCC3)cc1,AC50,[1],"5.01 µM [rising, partial curve]"
COC(=O)CS(=O)(=O)c1nnc([C@H](Cc2ccccc2)NC(=O)OC(C)(C)C)o1,AC50,[1],"12.6 µM [falling, partial curve]"
O=C(Nc1ccc(Cl)cc1Cl)c1cc(S(=O)(=O)N2CCc3ccccc32)ccc1F,AC50,[1],"12.6 µM [falling, partial curve]"
CCc1ccc(C2CC(=O)Nc3cc4c(cc32)OCO4)cc1 (stereo not drawn),AC50,[1],"25.1 µM [falling, partial curve]"
Cc1cccc(N2CCN(C(=O)c3c(C)oc4ncnc(N5CCCCC5)c34)CC2)c1C,AC50,[1],"31.6 µM [falling, partial curve]"
Cc1ccc(/C=C/c2nc3ccccc3[nH]2)cc1,AC50,[1],"5.01 µM [falling, partial curve]"
CC(C)COc1ccc(C(=O)N(Cc2ccc(N(C)C)cc2)Cc2ccco2)cc1,AC50,[1],"31.6 µM [falling, partial curve]"
CC1CCCCN1c1nnc(NC(=O)Nc2ccccc2F)s1 (stereo not drawn),AC50,[1],"15.8 µM [falling, partial curve]"
CCC(c1nnnn1Cc1ccccc1)N(Cc1ccco1)Cc1cc2cc(OC)ccc2[nH]c1=O (stereo not drawn),AC50,[1],"5.01 µM [rising, partial curve] [measured here: IkB-luc green channel]"
CCn1c(C)nc2c(=O)oc3ccccc3c21,AC50,[1],"31.6 µM [falling, single point]"
CC1CCCN(C(=O)c2cc3c(Cl)nc4ccccc4c3s2)C1 (stereo not drawn),AC50,[1],"25.1 µM [falling, partial curve]"
O=C(c1ccco1)c1cn(CCOc2ccc(F)cc2)c2ccccc12,AC50,[1],"5.01 µM [falling, partial curve]"
Cc1ccc(OCc2nc3ccccc3n2CCOc2ccc(Cl)cc2)cc1,AC50,[1],"3.98 µM [falling, full curve]"
CCc1cccc(CC)c1NC(=O)CN1C(=O)C(=O)c2ccccc21,AC50,measured here: IkB-luc green channel,"2.51 µM [rising, full curve, poor fit]"
same,AC50,measured here: control luc red channel,"0.794 µM [rising, full curve]"
CC(C)c1ccc(NC(=O)Cn2c(=O)n(CCc3ccccc3)c(=O)c3ccccc32)cc1,AC50,[1],"3.98 µM [falling, full curve, poor fit]"
O=S(=O)(c1ccc(Oc2ncnc3scc(-c4ccccc4)c23)cc1)N1CCOCC1,AC50,[1],"10 µM [falling, partial curve]"
Cc1ccc(C(=O)Nc2cccc(-c3nc4ccccc4o3)c2)c(Cl)c1,AC50,[1],"6.31 µM [falling, partial curve]"
Cc1ccc(-c2nnc(Nc3cccc(O)c3)c3ccccc23)cc1S(=O)(=O)N1CCN(C)CC1,AC50,[1],"25.1 µM [falling, partial curve]"
Cc1ccccc1OCC(O)Cn1c(=N)n(CCN2CCCCC2)c2ccccc21 (stereo not drawn),AC50,[1],"12.6 µM [falling, partial curve]"
COc1ccc(OC)c(NC(=O)c2c(NCc3cccs3)sc3c2CCCC3)c1,AC50,[1],"3.98 µM [rising, partial curve, poor fit]"
Cc1ccc(Cn2c(=O)n(CCCC(=O)NCc3ccccc3Cl)c(=O)c3ccccc32)cc1,AC50,[1],"0.398 µM [rising, full curve]"
COC(=O)c1cnc(N2CCN(c3ccccc3F)CC2)c2ccccc12,AC50,[1],"3.98 µM [falling, partial curve]"

# Rewritten as tab-separated lines: entries from further up.
structure (smiles)	measurement	setting	value
Cc1cccc(N2CCN(C(=O)c3c(C)oc4ncnc(N5CCCCC5)c34)CC2)c1C	AC50	[1]	31.6 µM [falling, partial curve]
Cc1ccc(/C=C/c2nc3ccccc3[nH]2)cc1	AC50	[1]	5.01 µM [falling, partial curve]
CC(C)COc1ccc(C(=O)N(Cc2ccc(N(C)C)cc2)Cc2ccco2)cc1	AC50	[1]	31.6 µM [falling, partial curve]
CC1CCCCN1c1nnc(NC(=O)Nc2ccccc2F)s1 (stereo not drawn)	AC50	[1]	15.8 µM [falling, partial curve]
CCC(c1nnnn1Cc1ccccc1)N(Cc1ccco1)Cc1cc2cc(OC)ccc2[nH]c1=O (stereo not drawn)	AC50	[1]	5.01 µM [rising, partial curve] [measured here: IkB-luc green channel]
CCn1c(C)nc2c(=O)oc3ccccc3c21	AC50	[1]	31.6 µM [falling, single point]
CC1CCCN(C(=O)c2cc3c(Cl)nc4ccccc4c3s2)C1 (stereo not drawn)	AC50	[1]	25.1 µM [falling, partial curve]
O=C(c1ccco1)c1cn(CCOc2ccc(F)cc2)c2ccccc12	AC50	[1]	5.01 µM [falling, partial curve]
Cc1ccc(OCc2nc3ccccc3n2CCOc2ccc(Cl)cc2)cc1	AC50	[1]	3.98 µM [falling, full curve]
CCc1cccc(CC)c1NC(=O)CN1C(=O)C(=O)c2ccccc21	AC50	measured here: IkB-luc green channel	2.51 µM [rising, full curve, poor fit]
same	AC50	measured here: control luc red channel	0.794 µM [rising, full curve]
CC(C)c1ccc(NC(=O)Cn2c(=O)n(CCc3ccccc3)c(=O)c3ccccc32)cc1	AC50	[1]	3.98 µM [falling, full curve, poor fit]
O=S(=O)(c1ccc(Oc2ncnc3scc(-c4ccccc4)c23)cc1)N1CCOCC1	AC50	[1]	10 µM [falling, partial curve]
